From PubChem BioAssay AID720533 (National Center for Advancing Translational Sciences (NCATS), 2013)
“And” between values parts separate entries of the source, which are not always exact repeats. Equal values may be shown once. Hit rate of the full screen: of about 18,000 compounds, about 750 (4.2%) were called active. The inconclusive results got no clear call from the source; some entries with a clear call stand among them for comparison. Calls come from the whole dose curve; tested in HEK293 cells. A potency beside an inconclusive call is a rough fit, not a confirmed value.

Experiment: qHTS for Inhibitors of binding or entry into cells for Lassa Virus
Settings: Lassa virus pseudotyped entry inhibition, cell-based qHTS; activity change, negative = inhibition: at 49.2 µM (top of the series) unless noted
% is set by controls: 0 for no effect and ±100 for the full control effect; potency is the fitted concentration of half-maximal effect.

Which Potency does the source give for `CC(C)(O)CCC(O)[C@@](C)(O)C1CC[C@]2(O)C3=CC(=O)C4CC(O)C(O)C[C@]4(C)C3CC[C@]12C` (some centres not stated) here?
Its Potency is “inactive”.

Which Potency does the source give for `COc1ccc(O)c(CN2CCOc3c(cc(-c4cccc(OC)n4)cc3OC)C2)c1` here?
The Potency was inconclusive: 20 µM [inhibitor, partial curve].

For `CC(C)c1c(C(=O)NC(c2cccnc2)C(F)(F)F)cnn1-c1nccc(-c2cccs2)n1` (configuration not stated), which Potency is on record?
Its Potency is inconclusive: 22.4 µM [inhibitor, partial curve, poor fit].

For `Cc1ccc(S(=O)(=O)N[C@@H](CCCCN)C(=O)CCl)cc1`, which Potency is on record?
The Potency was inconclusive: 22.4 µM [inhibitor, partial curve].

For `CN1C(=O)COc2c(C(=O)NC3CN4CCC3CC4)cc(Cl)cc21` (configuration not stated), which Potency is on record?
The Potency was inconclusive: 35.5 µM [inhibitor, single point].

For `CC=COC(=O)N[C@@H](c1cccc(C)c1)[C@]1(C(=O)OCC)CCCC1=O`, which activity change, negative = inhibition is on record?
Its activity change, negative = inhibition is inactive: -16.8% [at 8.59 µM].

Which Potency does the source give for `CS(=O)(=O)Nc1cccc(-c2nc(NCc3cccs3)c3ccccc3n2)c1` here?
Its Potency is inconclusive: 35.5 µM [inhibitor, single point].

Which Potency does the source give for `O=c1ccc2c(OCCCCOc3ccccc3)c3ccoc3cc2o1` here?
Its Potency is inconclusive: 35.5 µM [inhibitor, single point].

Which Potency does the source give for `C=C1CC[C@H](O)C/C1=C/C=C1\CCC[C@]2(C)[C@H]1CC[C@H]2[C@@H](C)/C=C\[C@@H](C)C(C)C` here?
The Potency was inconclusive: 7.94 µM [inhibitor, single point].

Which activity change, negative = inhibition does the source give for `Fc1ccccc1-c1nc(-c2ccccc2)oc1NC1CCCCC1` here?
Its activity change, negative = inhibition is inconclusive: -30.7% [inhibitor] [at 8.59 µM].

For `O=C(OC1CNC(C#Cc2cc3ncnc(Nc4ccc(OCc5cccc(F)c5)c(Cl)c4)c3s2)C1)N1CCOCC1` (configuration not stated), which Potency is on record?
The Potency was inconclusive: 2.81 µM [inhibitor, full curve, poor fit].

For `COc1cc2oc(=O)cc(-c3ccc(-c4ccc(CO)cc4)cc3)c2c(OC)c1OC`, which Potency is on record?
Its Potency is inconclusive: 10 µM [inhibitor, partial curve].

With `COC(=O)C1=C(C)NC(COC(N)=O)=C(C(=O)OC(C)C)C1c1cccc(Cl)c1Cl` (configuration not stated) as the molecule, how does the Potency read?
Its Potency is inconclusive: 31.6 µM [inhibitor, single point].

With `Nc1ncnc2c1ncn2C1CC(O)C(CO)O1` (configuration not stated) as the molecule, how does the Potency read?
Its Potency is “inactive”.

For `COc1ccc(COC(=O)NN=C2C[C@@H](O)[C@@H](O)[C@@H]3[C@H]4C(=O)N(C[C@@H]5CCCO5)C(=O)[C@@H]4CC[C@H]23)cc1`, which Potency is on record?
The Potency was active: 0.596 µM.

With `CCN(CC)CCNC(=O)c1cnn(-c2nccc(-c3cc4ccccc4o3)n2)c1C` as the molecule, how does the activity change, negative = inhibition read?
The activity change, negative = inhibition was inconclusive: -31.4% [inhibitor].

For `CCOC(=O)c1c(C)[nH]c2ccc3c(c12)CN1CCc2cc(OC)ccc2[C@@H]1O3`, which Potency is on record?
The Potency was inconclusive: 28.2 µM [inhibitor, partial curve].

Which Potency does the source give for `Cc1cc(C)nc(S[C@@H]2C[C@@H](C(=O)N3CCCN(C)CC3)N(Cc3cc(F)ccc3F)C2)n1` here?
Its Potency is “inactive”.

For `ClC1=C(Cl)C(Cl)(C2(Cl)C(Cl)=C(Cl)C(Cl)=C2Cl)C(Cl)=C1Cl`, which Potency is on record?
Its Potency is inconclusive: 3.55 µM [inhibitor, full curve].

With `COc1ccc(-c2nc3cc(C)ccc3cc2CN(C(=O)c2cc(C)nn2C)C2CC2)cc1OC` as the molecule, how does the Potency read?
Its Potency is inconclusive: 35.5 µM [inhibitor, single point].

For `CNc1ncnc2c1ncn2[C@@H]1O[C@H](CO)[C@@H](O)[C@H]1O`, which Potency is on record?
Its Potency is “inactive”.

With `CC(=O)O[C@H]1C[C@H](O[C@H]2[C@@H](O)C[C@H](O[C@H]3[C@@H](O)C[C@H](OC4CC[C@@]5(C)[C@H](CC[C@@H]6[C@@H]5CC[C@]5(C)[C@@H](C7=CC(=O)OC7)CC[C@]65O)C4)O[C@@H]3C)O[C@@H]2C)O[C@H](C)[C@H]1O[C@@H]1O[C@H](CO)[C@@H](O)[C@H](O)[C@H]1O` (some centres not stated) as the molecule, how does the Potency read?
The Potency was active: 25.1 µM.

With `CC#CCN1C(=O)NC(c2ccccc2)C(C(=O)OC)=C1C` (configuration not stated) as the molecule, how does the activity change, negative = inhibition read?
Its activity change, negative = inhibition is inactive: 8.11% [at 8.59 µM].

For `O=C(c1ccc2[nH]ccc2c1)N1CCOc2ccc(CN3CCN(c4ccccn4)CC3)cc2C1`, which Potency is on record?
Its Potency is inconclusive: 11.2 µM [inhibitor, partial curve].

For `CCC(N)Cc1c[nH]c2ccccc12` (configuration not stated), which Potency is on record?
Its Potency is inconclusive: 100 µM [inhibitor, partial curve, poor fit].

For `CN1C/C(=C/c2ccc(B(O)O)cc2)C(=O)/C(=C/c2ccc(B(O)O)cc2)C1`, which Potency is on record?
Its Potency is active: 12.6 µM.

With `c1ccc2c(c1)CCCC2C1=NCCN1` (configuration not stated) as the molecule, how does the Potency read?
Its Potency is “inactive”.

With `COc1cccc(CCc2ccccc2OCC(CN(C)C)OC(=O)CCC(=O)O)c1` (configuration not stated) as the molecule, how does the Potency read?
Its Potency is active: 22.4 µM.

For `COc1cc(-c2c(OC)cccc2OC)cc2c1OCCN(Cc1cn[nH]c1-c1ccc(Cl)cc1)C2`, which Potency is on record?
The Potency was “inactive”.

With `COc1cc(N2CCN(C(C)C)CC2)ccc1Nc1nc(Nc2cccc(F)c2C(=O)O)c2cc[nH]c2n1` as the molecule, how does the Potency read?
The Potency was “inactive”.

Which Potency does the source give for `CC[C@H](Oc1ccc(Cl)cc1)C(=O)OC1C[C@H]2CC[C@@H](C1)N2C` (some centres not stated) here?
The Potency was inconclusive: 35.5 µM [inhibitor, single point].

Which Potency does the source give for `CCCCCCCCCCCCCCCC(=O)O[C@H](CC(=O)O)C[N+](C)(C)C` here?
Its Potency is inconclusive: 31.6 µM [inhibitor, partial curve].

For `CSC[C@H]1CN(c2ccccc2)C(=O)[C@H]1CC(=O)Nc1ccccc1`, which Potency is on record?
The Potency was “inactive”.

Which Potency does the source give for `C=C(CC)C(=O)c1ccc(OCC(=O)O)c(Cl)c1Cl` here?
Its Potency is inconclusive: 17.8 µM [inhibitor, partial curve].

With `Clc1ccc(C(OCCN2CCCCC2)c2ccccc2)cc1` (configuration not stated) as the molecule, how does the Potency read?
The Potency was inconclusive: 12.6 µM [inhibitor, single point] and inconclusive: 17.8 µM [inhibitor, single point].

Which Potency does the source give for `Cc1ncc2c(c1CNS(=O)(=O)N(C)C)CCN(C(=O)c1ccc(-c3ccc(F)cc3)cc1)C2` here?
The Potency was inconclusive: 14.1 µM [inhibitor, partial curve].
